Experimental data published in paper doi:10.1101/2020.05.19.104463.
These are yes or no findings as the source states them, for the method shown. Binding seen in cells or lysates may run through a third protein. Binding calls can cover weak binding; strength is not graded here. Tags and fused reporters may be left off the sequences shown.

Target: T1, GFP-RAB13 (wild type) (human) (UniProt P51153)
T1 sequence: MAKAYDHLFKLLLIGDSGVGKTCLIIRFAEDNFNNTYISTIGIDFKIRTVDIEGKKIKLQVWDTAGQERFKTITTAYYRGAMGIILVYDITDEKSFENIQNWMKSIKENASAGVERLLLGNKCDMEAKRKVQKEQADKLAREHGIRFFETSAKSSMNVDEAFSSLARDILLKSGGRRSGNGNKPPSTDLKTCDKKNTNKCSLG
Assay: co-IP

In the case of “RabGDI (human (endogenous in MDA-MB-231))”, the binding is reported as “binds”.
